Small differences around the control level are noise.
Columns and labels:
Assay in all cases: normalised response (% of control), CellTox Green; higher = less cell death (100 = DMSO, 0 = benzethonium chloride kill control)
Settings in all cases: incubation time: 72 h
BT-549 = tested on: BT-549
Protocol: (§1)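 DSRT, 72 h incubation, CellTox Green / CellTiter-Glo readout. Signal is normalised to DMSO and benzethonium chloride controls. Value is the normalised response at the lowest tested concentration.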

CAL-85-1 = tested on: CAL-85-1
Protocol: as §1

MDA-MB-468 = tested on: MDA-MB-468
Protocol: as §1

MDA-MB-453 = tested on: MDA-MB-453
Protocol: as §1

CAL-148 = tested on: CAL-148
Protocol: as §1

Hs578T = tested on: Hs578T
Protocol: as §1

DU-4475 = tested on: DU-4475
Protocol: as §1

MDA-MB-436 = tested on: MDA-MB-436
Protocol: as §1

HDQ-P1 = tested on: HDQ-P1
Protocol: as §1

MFM-223 = tested on: MFM-223
Protocol: as §1

CAL-51 = tested on: CAL-51
Protocol: as §1

HCC1599 = tested on: HCC1599
Protocol: as §1

BT-474 = tested on: BT-474
Protocol: as §1

MDA-MB-231 = tested on: MDA-MB-231
Protocol: as §1

CAL-120 = tested on: CAL-120
Protocol: as §1

MCF-10A = tested on: MCF-10A
Protocol: as §1

HCC1937 = tested on: HCC1937
Protocol: as §1

HCC1143 = tested on: HCC1143
Protocol: as §1

SMILES	normalised response (BT-549) [%]	normalised response (CAL-85-1) [%]	normalised response (MDA-MB-468) [%]	normalised response (MDA-MB-453) [%]	normalised response (CAL-148) [%]	normalised response (Hs578T) [%]	normalised response (DU-4475) [%]	normalised response (MDA-MB-436) [%]	normalised response (HDQ-P1) [%]	normalised response (MFM-223) [%]	normalised response (CAL-51) [%]	normalised response (HCC1599) [%]	normalised response (BT-474) [%]	normalised response (MDA-MB-231) [%]	normalised response (CAL-120) [%]	normalised response (MCF-10A) [%]	normalised response (HCC1937) [%]	normalised response (HCC1143) [%]
CS(=O)(=O)OCCCCOS(C)(=O)=O [Busulfan] (10 nM)	100	92.2	72.6	105	100	104	103	97.4	60.3	61.8	87	107	102	107	98.5	81.4		
CCN(CC)CCOc1ccc(C(=C(Cl)c2ccccc2)c2ccccc2)cc1 [Clomifene] (1 nM)	102	94.5	93.9	110	101	70.9	103	86.2	104	98.4	102	95.2	102	105	100	103	91.7	
C[C@@H](Oc1cc(-c2cnn(C3CCNCC3)c2)cnc1N)c1c(Cl)ccc(F)c1Cl [Crizotinib] (0.1 nM)	106	106	112	112	103	107	102	81.3	71.1	82.6	113	108	102	55.9	95.4	97.9	52.5	116
Cc1nc(C(=O)NCC(=O)O)c(O)c2ccc(Oc3ccccc3)cc12 [FG-4592] (1 nM)	89.2	103	110	112	102		105	100	100	104	99.3	111	103	119	106	104	90.8	121
CC(C)C[C@H](NC(=O)[C@@H](COC(C)(C)C)NC(=O)[C@H](Cc1ccc(O)cc1)NC(=O)[C@H](CO)NC(=O)[C@H](Cc1c[nH]c2ccccc12)NC(=O)[C@H](Cc1cnc[nH]1)NC(=O)[C@@H]1CCC(=O)N1)C(=O)N[C@@H](CCCNC(=N)N)C(=O)N1CCC[C@H]1C(=O)NNC(N)=O [Goserelin] (1 nM)	102	94.2	129	97.6	76.8	69.7	97.4	56.7	74.5	99.2	110	93.4	96.3	81	99.2	102	95.9	105
C[C@]12O[C@H](C[C@]1(O)CO)n1c3ccccc3c3c4c(c5c6ccccc6n2c5c31)CNC4=O [Lestaurtinib] (0.1 nM)	95.8	97.7	59.3	99.4	94.3	98	95.6	95.3	104	87.8	64.3	92.2	100	101	95.5	107	60.4	102
COc1ccc(C2=N[C@@H](c3ccc(Cl)cc3)[C@@H](c3ccc(Cl)cc3)N2C(=O)N2CCNC(=O)C2)c(OC(C)C)c1 [Nutlin-3] (1 nM)	90.1	101	97.2	106	98.9	108	103	91.8	104	106	89.7	102	101	109	98.2	97.2	92.6	124
O=C(O)C(=O)O.[NH-][C@@H]1CCCC[C@H]1[NH-].[Pt+2] [Oxaliplatin] (1 nM)	89.9	105	106	94.1	97.7	71	98	83.4	70.2	105	105	100	98.1	98.6	93	87.6		105
CC(=O)O[C@H]1C(=O)[C@@]2(C)[C@H]([C@H](OC(=O)c3ccccc3)[C@]3(O)C[C@H](OC(=O)[C@H](O)[C@@H](NC(=O)c4ccccc4)c4ccccc4)C(C)=C1C3(C)C)[C@]1(OC(C)=O)CO[C@@H]1C[C@@H]2O [Paclitaxel] (0.1 nM)	95	97	110	88	102	73.8	96.1	97	73.7	102	68.6	98.1	101	104	100	96.7	87.6	121
CNNCc1ccc(C(=O)NC(C)C)cc1 [Procarbazine] (1 nM)	101	102	66.8	102	81.9	114	109	103	109	98.6	113	112	98.5	113	102	98.7	103	124
O=C(c1ccc(OCCN2CCCCC2)cc1)c1c(-c2ccc(O)cc2)sc2cc(O)ccc12 [Raloxifene] (1 nM)	104	95.5	73.1	104	103	99	108	88	102		124	111	99	112	101	106	114	79.2

Record cards (already shown). Order of values: normalised response (BT-549) [%] | normalised response (CAL-85-1) [%] | normalised response (MDA-MB-468) [%] | normalised response (MDA-MB-453) [%] | normalised response (CAL-148) [%] | normalised response (Hs578T) [%] | normalised response (DU-4475) [%] | normalised response (MDA-MB-436) [%] | normalised response (HDQ-P1) [%] | normalised response (MFM-223) [%] | normalised response (CAL-51) [%] | normalised response (HCC1599) [%] | normalised response (BT-474) [%] | normalised response (MDA-MB-231) [%] | normalised response (CAL-120) [%] | normalised response (MCF-10A) [%] | normalised response (HCC1937) [%] | normalised response (HCC1143) [%]
`CNNCc1ccc(C(=O)NC(C)C)cc1` [Procarbazine] (1 nM) in the list: 101 | 102 | 66.8 | 102 | 81.9 | 114 | 109 | 103 | 109 | 98.6 | 113 | 112 | 98.5 | 113 | 102 | 98.7 | 103 | 124
`C[C@]12O[C@H](C[C@]1(O)CO)n1c3ccccc3c3c4c(c5c6ccccc6n2c5c31)CNC4=O` [Lestaurtinib] (0.1 nM) in the list: 95.8 | 97.7 | 59.3 | 99.4 | 94.3 | 98 | 95.6 | 95.3 | 104 | 87.8 | 64.3 | 92.2 | 100 | 101 | 95.5 | 107 | 60.4 | 102
